From patent US20180219160A1, “BENZOBIS(THIADIAZOLE) DERIVATIVE, INK COMPRISING THE SAME, AND ORGANIC ELECTRONIC DEVICE USING THE SAME” (UBE INDUSTRIES, LTD., priority 2014, published 2018)
Some compounds share one wording; it may come from a single statement.

Assay: Organic TFT (bottom gate-top contact) transfer characteristics / field-effect mobility
Conditions: for semiconductor characteristics of the organic TFT (n-type / p-type): transfer characteristics, drain voltage 20-100 V as in each Example E, no p-type characteristics
[1] = bare substrate, spin-coating 0.1 wt % in chloroform under nitrogen, heated 180° C. 35 min, drain voltage 100 V
[2] = PVP substrate, spin-coating 0.1 wt % in chloroform under nitrogen, heated 180° C. 35 min, drain voltage 80 V
[3] = bare substrate, spin-coating 0.1 wt % in chloroform under nitrogen, heated 180° C. 35 min, drain voltage 80 V

Compound	field-effect mobility [1]	semiconductor characteristics of the organic TFT (n-type / p-type)	field-effect mobility [2]	field-effect mobility [3]	other results
CCCCCCN1C(=O)c2cc(-c3c4c(c(-c5cc6c(s5)C(=O)N(CCCCCC)C6=O)c5nsnc35)N=S=N4)sc2C1=O [Compound (12-6)]	3.9×10^−1 cm^2/Vs	n-type semiconductor characteristics			field-effect mobility (PVP substrate, spin-coating 0.1 wt % in chloroform in the atmosphere, heated 180° C. 35 min, drain voltage 80 V): 6.3×10^−1 cm^2/Vs; field-effect mobility (PVP substrate, spin-coating 0.1 wt % in chloroform under nitrogen, heated 120° C. 35 min, drain voltage 100 V): 2.9×10^−1 cm^2/Vs; field-effect mobility (as Example E-1b (bare substrate, 0.2 wt % in chloroform), after organic TFT left in the atmosphere for 28 days): 3.9×10^−1 cm^2/Vs; field-effect mobility (bare substrate, spin-coating 0.1 wt % in chloroform in the atmosphere, heated 120° C. 35 min, drain voltage 100 V): 3.2×10^−1 cm^2/Vs; field-effect mobility (bare substrate, spin-coating 0.2 wt % in chloroform under nitrogen, heated 180° C. 35 min, drain voltage 100 V): 3.6×10^−1 cm^2/Vs
CCCCCCCCN1C(=O)c2cc(-c3c4c(c(-c5cc6c(s5)C(=O)N(CCCCCCCC)C6=O)c5nsnc35)N=S=N4)sc2C1=O [Compound (12-8)]		n-type semiconductor characteristics	9.6×10^−1 cm^2/Vs	1.0×10^0 cm^2/Vs	field-effect mobility (bare substrate, spin-coating 0.1 wt % in chloroform in the atmosphere, heated 180° C. 35 min, drain voltage 100 V): 8.3×10^−1 cm^2/Vs
CCCCCCCCCCCCN1C(=O)c2cc(-c3c4c(c(-c5cc6c(s5)C(=O)N(CCCCCCCCCCCC)C6=O)c5nsnc35)N=S=N4)sc2C1=O [Compound (12-12)]	7.3×10^−1 cm^2/Vs	n-type semiconductor characteristics			field-effect mobility (PVP substrate, spin-coating 0.1 wt % in chloroform under nitrogen, heated 150° C. 35 min, drain voltage 100 V): 6.2×10^−1 cm^2/Vs
CCCCC(CC)CN1C(=O)c2cc(-c3c4c(c(-c5cc6c(s5)C(=O)N(CC(CC)CCCC)C6=O)c5nsnc35)N=S=N4)sc2C1=O (centres unmarked) [Compound (12-EH)]		n-type semiconductor characteristics	2.0×10^−1 cm^2/Vs	5.7×10^−1 cm^2/Vs	
O=C1c2cc(-c3c4c(c(-c5cc6c(s5)C(=O)N(CC(F)(F)C(F)(F)C(F)(F)F)C6=O)c5nsnc35)N=S=N4)sc2C(=O)N1CC(F)(F)C(F)(F)C(F)(F)F [Compound (12-HepFBu)]		n-type semiconductor characteristics			field-effect mobility (OTS-modified substrate, vacuum deposition, drain voltage 100 V): 6.4×10^−3 cm^2/Vs
CN1C(=O)c2cc3cc(-c4c5c(c(-c6cc7cc8c(cc7s6)C(=O)N(C)C8=O)c6nsnc46)N=S=N5)sc3cc2C1=O [Compound (22-1)]		n-type semiconductor characteristics			field-effect mobility (HMDS-modified substrate, vacuum deposition, drain voltage 100 V): 3.6×10^−4 cm^2/Vs; field-effect mobility (PS substrate, vacuum deposition, drain voltage 100 V): 5.2×10^−4 cm^2/Vs; field-effect mobility (PVP substrate, vacuum deposition, drain voltage 100 V): 3.6×10^−4 cm^2/Vs
